The nature of the data set: general procedure: Fmoc solid-phase peptide synthesis; Rink Amide MBHA resin, loading 0.69 mmol/g; DIC/HOBT/DIPEA; HATU/DIPEA for Boc-HYNIC. The settings on record: whole synthesis.

For HYNIC-Tyr^8-Met(O)^11-SP, the isolated yield entry is reported as “approximately 53%”. Moreover, where the note is “overall”, the crude yield result is recorded as “about 76%”.

The record behind these values is paper PMC4277623 (Iranian Journal of Pharmaceutical Research : IJPR, 2015).
